Results are given in words; binding and its absence hold for the method and conditions named. Binding seen in cells or lysates may run through a third protein. Some binding calls cover weakened binding; strength is not graded here.
Biological target: T1, macrophage migration inhibitory factor (MIF), endogenous (human (endogenous in MDA-MB-231 and HeLa)) (UniProt P14174)
T1 sequence: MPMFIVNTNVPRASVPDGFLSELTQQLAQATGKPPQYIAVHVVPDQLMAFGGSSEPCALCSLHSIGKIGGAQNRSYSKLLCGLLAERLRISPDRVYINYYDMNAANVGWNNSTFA
Assay: co-IP; endogenous proteins, MDA-MB-231 lysate in NETN buffer (150 mM NaCl, 1 mM EDTA, 10 mM Tris-HCl pH 8.0, 0.5% IGEPAL), antibodies to MIF or PCNA with protein A/G magnetic beads overnight at 4 °C, immunoblot; also with or without Olaparib (5 uM, 2 h) after double thymidine synchronisation (more MIF-PCNA with Olaparib)

- binding: binds
B1: Mus81, endogenous (protein, UniProt Q96NY9 1-551)
chain: MAAPVRLGRKRPLPACPNPLFVRWLTEWRDEATRSRRRTRFVFQKALRSLRRYPLPLRSGKEAKILQHFGDGLCRMLDERLQRHRTSGGDHAPDSPSGENSPAPQGRLAEVQDSSMPVPAQPKAGGSGSYWPARHSGARVILLVLYREHLNPNGHHFLTKEELLQRCAQKSPRVAPGSARPWPALRSLLHRNLVLRTHQPARYSLTPEGLELAQKLAESEGLSLLNVGIGPKEPPGEETAVPGAASAELASEAGVQQQPLELRPGEYRVLLCVDIGETRGGGHRPELLRELQRLHVTHTVRKLHVGDFVWVAQETNPRDPANPGELVLDHIVERKRLDDLCSSIIDGRFREQKFRLKRCGLERRVYLVEEHGSVHNLSLPESTLLQAVTNTQVIDGFFVKRTADIKESAAYLALLTRGLQRLYQGHTLRSRPWGTPGNPESGAMTSPNPLCSLLTFSDFNAGAIKNKAQSVREVFARQLMQVRGVSGEKAAALVDRYSTPASLLAAYDACATPKEQETLLSTIKCGRLQRNLGPALSRTLSQLYCSYGPLT

Reference: article PMC8134555
